# At least one compound was matched to its structure with a doubt left.
# Test system: lime enzyme preparation
# Test: Effect of common blood components on the lime enzyme reaction
# Format: biochemical, Citrus aurantifolia
# Conditions: 88.4 and 176.8 µM in a serum-based matrix
# Method: The bilirubin-degrading assay as described in Example 2 was carried out using a lime enzyme preparation obtained as described in Example 1. Urate (at either 1.2 mM or 297 µM) and creatinine (88.4 and 176.8 µM) in a serum-based matrix had no effect on either the rate or extent of bilirubin degradation by the Citrus enzyme. […] Tests that are interfered severely by bilirubin include e.g. uric acid, cholesterol, glucose, triglycerides, to mention just a few (See for example, Spain and Wu, Clin. Chem. 32:518, 1986). Also, in practice, one will use much higher levels of the enzyme than those used here (5-10 µL/assay, representing about 0.1-0.2 mg protein). In such cases, the effects on initial rates will most likely be overcome or reduced to well within tolerable limits.
compound,measurement,value
CN1CC(=O)NC1=N [creatinine],effect on the rate or extent of bilirubin degradation,no effect
